Data taken from US10336792B2 (priority 2014, dated 2019).
For some assays here: Some peptides are written in HELM: one residue between dots, names in brackets for other building blocks, links after the first $. Positions of bridges follow the written chain, without caps; N, C: chain ends. Non-standard residues stand in square brackets, D forms with d. Residues, ends and D or L forms follow the SMILES beside them. Groups on a side chain read outwards from the residue. Chains are numbered I, II in the order given. Dap = NC[C@H](N)C(=O)O

How the values were obtained:
[1] = general procedure: Fmoc solid-phase peptide synthesis; Rink-amide resin; PyBOP or HOBt with DIPEA or DIC in NMP or DMF; HATU/DIPEA or HOBt/DIC/DIPEA for; conditions: conjugation step
[2] = test system: Bacillus subtilis (strain BR151); format: cell-based; conditions: MHC on hRBC / MIC B. subtilis
Experimental: (§1) Antimicrobial activity was assayed against Bacillus subtilis (strain BR151), Escherichia coli (strain DH5α) and Pseudomonas aeruginosa (strain PA01). Microdilution broth method was used to determine the minimal inhibitory concentration (MIC). A colony of bacteria was grown in LB-medium overnight at 37° C. The concentration was quantified by measuring absorbance at 600 nm and diluted to OD600=0.1 (1×10^8 CFU/mL). The samples were prepared as stock solutions of 1 mg mL^−1 in H2O and diluted serially by ⅔ in nutrient LB in a 96-well microtiterplate (Cornstar, polypropylene, untreated). The sample solutions (50 μL) were mixed with the diluted bacterial suspension with an OD600 nm of 0.001 (50 μL). […] The plates were incubated at 37° C. until satisfactory growth (18-24 h). For each test, two columns of the plate were kept for sterility control (SC, broth only) and growth control (GC, broth with bacterial inoculums, no antibiotics). 10 μL of a solution of MTT (0.1% in H2O) was added to each well. The minimal inhibitory concentration (MIC) was defined as the lowest concentration of the antimicrobial substance (peptide dendrimer) that inhibited visible growth of the tested bacteria (yellow) with the unaided eye. For microbiological study the linear peptide LysTyrLysLysAlaLeuLysLysLeuAlaLysLeuLeu (SEQ ID No. 1) was used as reference.
(§2) The AMPD library was tested for their antimicrobial activity against B. subtilis BR151, a Gram-positive bacterium and E. coli DH5α, another Gram-negative bacterium, to cover a broader spectrum of different bacteria. […] Therefore no explicit SAR can be established, but clearly the hydrophobic amino acids Ala and Tyr seem to have a significant influence in reducing activity.

[3] = test system: Escherichia coli (strain DH5α); format: cell-based; conditions: MHC on hRBC / MIC E. coli
Experimental: as §1, §2

[4] = test system: Pseudomonas aeruginosa (strain PA01); format: cell-based; conditions: MHC on hRBC / MIC PAO1
Experimental: as §1
All peptides were tested for their activity against P. aeruginosa PAO1 in a broth dilution assay (Wiegand, I. et al., 2008, Nat. Protoc., 3, 163-75; Clinical and Laboratory Standards Institute document M7-A7 7th Edition) to determine the MIC (minimal inhibitory concentration) values. The stock solutions of the peptide dendrimers were diluted serially by ⅔ in nutrient LB in 96-well microtiter plates. Bacteria were grown in nutrient LB overnight at 37° C. After dilution the bacteria were added to the peptides and incubated overnight (18-24 h) at 37° C. […] The position of the amino acids between the branching units seems to be optimal if the hydrophobic amino acid is the first counting from C-terminus and the charged one is on the second position. Introducing Ala as additional hydrophobic amino acid reduces activity (MSt-120). […] Also assembling charged or hydrophobic sections between the branching units leads to loss of activity whereas altering L-amino acids to D-amino acids maintains activity leading to the hypothesis that the mechanism of action should not be receptor mediated.

Molecule	conjugation yield [1] [%]	TI (MHC/MIC), B. subtilis BR151 [2]	TI (MHC/MIC), E. coli DH5α [3]	TI (therapeutic index = MHC/MIC), P. aeruginosa PAO1 [4]
PEPTIDE1{[CH2CO].R.L.K.R.L.K.R.L.[am]}|PEPTIDE2{[CH2CO].R.L}|PEPTIDE3{[CH2CO].R.L.K.R.L}|PEPTIDE4{[CH2CO].R.L}|PEPTIDE5{R.L.K.R.L.C.[am]}|PEPTIDE6{R.L.K.R.L.C.[am]}|PEPTIDE7{R.L.K.R.L.C.[am]}|PEPTIDE8{R.L.K.R.L.C.[am]}|PEPTIDE9{R.L}|PEPTIDE10{R.L}|PEPTIDE11{R.L}|PEPTIDE12{R.L}$PEPTIDE1,PEPTIDE2,4:R3-3:R2|PEPTIDE1,PEPTIDE3,7:R3-6:R2|PEPTIDE3,PEPTIDE4,4:R3-3:R2|PEPTIDE1,PEPTIDE5,1:R3-6:R3|PEPTIDE2,PEPTIDE6,1:R3-6:R3|PEPTIDE3,PEPTIDE7,1:R3-6:R3|PEPTIDE4,PEPTIDE8,1:R3-6:R3|PEPTIDE5,PEPTIDE9,3:R3-2:R2|PEPTIDE6,PEPTIDE10,3:R3-2:R2|PEPTIDE7,PEPTIDE11,3:R3-2:R2|PEPTIDE8,PEPTIDE12,3:R3-2:R2$$$V2.0	31	–	–	–
(KL)16(KKL)8(KKLCxKL)4(KKL)2KKL	42.0	–	–	–
CC(C)C[C@H](NC(=O)[C@H](CCCNC(=N)N)NC(=O)[C@H](CNC(=O)[C@H](CC(C)C)NC(=O)[C@H](CCCNC(=N)N)NC(=O)[C@H](CNC(=O)[C@H](CC(C)C)NC(=O)[C@@H](N)CCCNC(=N)N)NC(=O)[C@H](CC(C)C)NC(=O)[C@@H](N)CCCNC(=N)N)NC(=O)[C@H](CC(C)C)NC(=O)[C@H](CCCNC(=N)N)NC(=O)[C@H](CNC(=O)[C@H](CC(C)C)NC(=O)[C@@H](N)CCCNC(=N)N)NC(=O)[C@H](CC(C)C)NC(=O)[C@@H](N)CCCNC(=N)N)C(N)=O [MSt-139, (RL)4(BRL)2(BRL)] (I: H-RL[Dap]([Leu-Arg])RL[Dap]RL-NH2 / II: H-RL[Dap]([Leu-Arg])RL; amide I:6-II:C)	–	61	57	485
(KL)16(KKLCxKL)8(KKL)4(KKL)2KKL	37.0	–	–	–
CC(C)C[C@H](NC(=O)[C@H](CCCCN)NC(=O)[C@H](CCCCNC(=O)[C@H](CC(C)C)NC(=O)[C@H](CCCCN)NC(=O)[C@H](CCCCNC(=O)[C@H](CC(C)C)NC(=O)[C@H](CCCCN)NC(=O)[C@H](CCCCNC(=O)[C@H](CC(C)C)NC(=O)[C@@H](N)CCCCN)NC(=O)[C@H](CC(C)C)NC(=O)[C@@H](N)CCCCN)NC(=O)[C@H](CC(C)C)NC(=O)[C@H](CCCCN)NC(=O)[C@H](CCCCNC(=O)[C@H](CC(C)C)NC(=O)[C@@H](N)CCCCN)NC(=O)[C@H](CC(C)C)NC(=O)[C@@H](N)CCCCN)NC(=O)[C@H](CC(C)C)NC(=O)[C@H](CCCCN)NC(=O)[C@H](CCCCNC(=O)[C@H](CC(C)C)NC(=O)[C@H](CCCCN)NC(=O)[C@H](CCCCNC(=O)[C@H](CC(C)C)NC(=O)[C@@H](N)CCCCN)NC(=O)[C@H](CC(C)C)NC(=O)[C@@H](N)CCCCN)NC(=O)[C@H](CC(C)C)NC(=O)[C@H](CCCCN)NC(=O)[C@H](CCCCNC(=O)[C@H](CC(C)C)NC(=O)[C@@H](N)CCCCN)NC(=O)[C@H](CC(C)C)NC(=O)[C@@H](N)CCCCN)C(N)=O [MSt-112, (KL)8(KKL)4(KKL)2(KKL)] (I: H-KLK([Leu-Lys])KLKKLKKL-NH2 / II: H-KLK([Leu-Lys])KLKKL / III: H-KLK([Leu-Lys])KL / IV: H-KLK([Leu-Lys])KL; amide I:6-IV:C, I:9-II:C, II:6-III:C)	–	279	210	419
PEPTIDE1{[CH2CO].K.L.K.K.L.K.K.L.[am]}|PEPTIDE2{[CH2CO].K.L}|PEPTIDE3{[CH2CO].K.L.K.K.L}|PEPTIDE4{[CH2CO].K.L}|PEPTIDE5{K.L.K.K.L.C.[am]}|PEPTIDE6{K.L.K.K.L.C.[am]}|PEPTIDE7{K.L.K.K.L.C.[am]}|PEPTIDE8{K.L.K.K.L.C.[am]}|PEPTIDE9{K.L}|PEPTIDE10{K.L}|PEPTIDE11{K.L}|PEPTIDE12{K.L}$PEPTIDE1,PEPTIDE2,4:R3-3:R2|PEPTIDE1,PEPTIDE3,7:R3-6:R2|PEPTIDE3,PEPTIDE4,4:R3-3:R2|PEPTIDE1,PEPTIDE5,1:R3-6:R3|PEPTIDE2,PEPTIDE6,1:R3-6:R3|PEPTIDE3,PEPTIDE7,1:R3-6:R3|PEPTIDE4,PEPTIDE8,1:R3-6:R3|PEPTIDE5,PEPTIDE9,3:R3-2:R2|PEPTIDE6,PEPTIDE10,3:R3-2:R2|PEPTIDE7,PEPTIDE11,3:R3-2:R2|PEPTIDE8,PEPTIDE12,3:R3-2:R2$$$V2.0	73	–	–	–
(KL)32(KKL)16(KKLCxKL)8(KKL)4(KKL)2KKL	17.0	–	–	–
